Results deposited as PubChem BioAssay AID1508597 (Cure First, 2020)
Aim: 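Genes whose silencing sensitises or protects ovarian cancer cells against rucaparib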 (primary screen). Cell system: human ovarian carcinoma lines grown from tumours: OCI-P5x (papillary serous) and OCI-C5x (clear cell). Reagents: siRNA pool against human genes, 1.25 pmol siRNA per well. Timing: 72 h or 96 h, depending on the cell culture. Challenge: rucaparib 20 µM (about IC30) or vehicle, present until read-out. Rucaparib or vehicle: Rucaparib. Cell line: OCI-C5x (clear cell). Measurement: 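Luminescent ATP-based viability assay read 72 or 96 h after transfection, depending on culture, given as normalised percent viability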. Scale: viability, normalised: higher = more viable cells remaining. Active means: 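Active when normalised viability falls below 80 percent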. Meaning of the calls: active = viability under 80%; inactive = viability 80% or more.
This is an unselected part of the about 2,100 reagents, in one setting of the screen. 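Calls flag viability under 80% in either arm, not effects specific to rucaparib; the reference for percent is not stated.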 Unmarked entries are inactive. A reagent listed more than once was tested more than once; the source does not tell the runs apart. Not given: the 100% reference.

How did the screen score SOX21 (GeneID 11166), technical replicate 1?
viability, normalised (%): 35 (active)

What did the screen give for SOX21 (GeneID 11166), technical replicate 2?
viability, normalised (%): 44.6 (active)

What did the screen give for SOX21 (GeneID 11166), technical replicate 3?
viability, normalised (%): 36.8 (active)

With AGK (GeneID 55750), technical replicate 1, what was measured?
viability, normalised (%): 72.8 (active)

How did the screen score AGK (GeneID 55750), technical replicate 2?
viability, normalised (%): 47.7 (active)

For AGK (GeneID 55750), technical replicate 3, what was measured?
viability, normalised (%): 61.4 (active)

For NME1 (GeneID 4830), technical replicate 1, how do the results read?
viability, normalised (%): 51.4 (active)

For NME1 (GeneID 4830), technical replicate 1, how do the results read?
viability, normalised (%): 67.8 (active)

For NME1 (GeneID 4830), technical replicate 2, how do the results read?
viability, normalised (%): 64.7 (active)

What is on record for NME1 (GeneID 4830), technical replicate 2?
viability, normalised (%): 39.2 (active)

What is on record for NME1 (GeneID 4830), technical replicate 3?
viability, normalised (%): 61 (active)

With NME1 (GeneID 4830), technical replicate 3, what does the deposit list?
viability, normalised (%): 33.6 (active)

4 entries already listed, arranged by “viability, normalised (%)”, lowest first.
NME1 (GeneID 4830), technical replicate 2: viability, normalised (%) = 39.2 (active)
NME1 (GeneID 4830), technical replicate 3: viability, normalised (%) = 61 (active)
NME1 (GeneID 4830), technical replicate 2: viability, normalised (%) = 64.7 (active)
NME1 (GeneID 4830), technical replicate 1: viability, normalised (%) = 67.8 (active)

More records follow.
What is on record for CXXC1 (GeneID 30827), technical replicate 1?
viability, normalised (%): 26.8 (active)

For CXXC1 (GeneID 30827), technical replicate 1, how do the results read?
viability, normalised (%): 46 (active)

For CXXC1 (GeneID 30827), technical replicate 2, how do the results read?
viability, normalised (%): 56.6 (active)

With CXXC1 (GeneID 30827), technical replicate 2, what does the deposit list?
viability, normalised (%): 27.4 (active)

For CXXC1 (GeneID 30827), technical replicate 3, what was measured?
viability, normalised (%): 65 (active)

What is on record for CXXC1 (GeneID 30827), technical replicate 3?
viability, normalised (%): 28.7 (active)

Which result is listed for MED30 (GeneID 90390), technical replicate 1?
viability, normalised (%): 37.4 (active)

Which result is listed for MED30 (GeneID 90390), technical replicate 2?
viability, normalised (%): 26.4 (active)

With MED30 (GeneID 90390), technical replicate 3, what was measured?
viability, normalised (%): 35 (active)

With RCBTB1 (GeneID 55213), technical replicate 1, how do the results read?
viability, normalised (%): 46.7 (active)

How did the screen score RCBTB1 (GeneID 55213), technical replicate 2?
viability, normalised (%): 57.8 (active)

For RCBTB1 (GeneID 55213), technical replicate 3, what was measured?
viability, normalised (%): 41.8 (active)

What did the screen give for ACVR1C (GeneID 130399), technical replicate 1?
viability, normalised (%): 74.2 (active)

How did the screen score ACVR1C (GeneID 130399), technical replicate 2?
viability, normalised (%): 75.4 (active)

For ACVR1C (GeneID 130399), technical replicate 3, how do the results read?
viability, normalised (%): 72 (active)

Which result is listed for MINK1 (GeneID 50488), technical replicate 1?
viability, normalised (%): 40.4 (active)

For MINK1 (GeneID 50488), technical replicate 2, how do the results read?
viability, normalised (%): 33.2 (active)

For MINK1 (GeneID 50488), technical replicate 3, what does the deposit list?
viability, normalised (%): 35.2 (active)

Which result is listed for SET (GeneID 6418), technical replicate 1?
viability, normalised (%): 46.9 (active)

For SET (GeneID 6418), technical replicate 2, how do the results read?
viability, normalised (%): 46.4 (active)

How did the screen score SET (GeneID 6418), technical replicate 3?
viability, normalised (%): 53.3 (active)
